Results: article doi:10.1101/2022.11.24.517835
These are yes or no findings as the source states them, for the method shown. Binding seen in cells or lysates may run through a third protein. A yes stands for co-enrichment or nearness to the bait. Other partners may have been found. No binding means not detected with the bait. For some of these results: Tags and fused reporters may be left off the sequences shown.

By UniProt entry, the sequences of proteins in these tests, tags left out.
UniProt Q6EVK6: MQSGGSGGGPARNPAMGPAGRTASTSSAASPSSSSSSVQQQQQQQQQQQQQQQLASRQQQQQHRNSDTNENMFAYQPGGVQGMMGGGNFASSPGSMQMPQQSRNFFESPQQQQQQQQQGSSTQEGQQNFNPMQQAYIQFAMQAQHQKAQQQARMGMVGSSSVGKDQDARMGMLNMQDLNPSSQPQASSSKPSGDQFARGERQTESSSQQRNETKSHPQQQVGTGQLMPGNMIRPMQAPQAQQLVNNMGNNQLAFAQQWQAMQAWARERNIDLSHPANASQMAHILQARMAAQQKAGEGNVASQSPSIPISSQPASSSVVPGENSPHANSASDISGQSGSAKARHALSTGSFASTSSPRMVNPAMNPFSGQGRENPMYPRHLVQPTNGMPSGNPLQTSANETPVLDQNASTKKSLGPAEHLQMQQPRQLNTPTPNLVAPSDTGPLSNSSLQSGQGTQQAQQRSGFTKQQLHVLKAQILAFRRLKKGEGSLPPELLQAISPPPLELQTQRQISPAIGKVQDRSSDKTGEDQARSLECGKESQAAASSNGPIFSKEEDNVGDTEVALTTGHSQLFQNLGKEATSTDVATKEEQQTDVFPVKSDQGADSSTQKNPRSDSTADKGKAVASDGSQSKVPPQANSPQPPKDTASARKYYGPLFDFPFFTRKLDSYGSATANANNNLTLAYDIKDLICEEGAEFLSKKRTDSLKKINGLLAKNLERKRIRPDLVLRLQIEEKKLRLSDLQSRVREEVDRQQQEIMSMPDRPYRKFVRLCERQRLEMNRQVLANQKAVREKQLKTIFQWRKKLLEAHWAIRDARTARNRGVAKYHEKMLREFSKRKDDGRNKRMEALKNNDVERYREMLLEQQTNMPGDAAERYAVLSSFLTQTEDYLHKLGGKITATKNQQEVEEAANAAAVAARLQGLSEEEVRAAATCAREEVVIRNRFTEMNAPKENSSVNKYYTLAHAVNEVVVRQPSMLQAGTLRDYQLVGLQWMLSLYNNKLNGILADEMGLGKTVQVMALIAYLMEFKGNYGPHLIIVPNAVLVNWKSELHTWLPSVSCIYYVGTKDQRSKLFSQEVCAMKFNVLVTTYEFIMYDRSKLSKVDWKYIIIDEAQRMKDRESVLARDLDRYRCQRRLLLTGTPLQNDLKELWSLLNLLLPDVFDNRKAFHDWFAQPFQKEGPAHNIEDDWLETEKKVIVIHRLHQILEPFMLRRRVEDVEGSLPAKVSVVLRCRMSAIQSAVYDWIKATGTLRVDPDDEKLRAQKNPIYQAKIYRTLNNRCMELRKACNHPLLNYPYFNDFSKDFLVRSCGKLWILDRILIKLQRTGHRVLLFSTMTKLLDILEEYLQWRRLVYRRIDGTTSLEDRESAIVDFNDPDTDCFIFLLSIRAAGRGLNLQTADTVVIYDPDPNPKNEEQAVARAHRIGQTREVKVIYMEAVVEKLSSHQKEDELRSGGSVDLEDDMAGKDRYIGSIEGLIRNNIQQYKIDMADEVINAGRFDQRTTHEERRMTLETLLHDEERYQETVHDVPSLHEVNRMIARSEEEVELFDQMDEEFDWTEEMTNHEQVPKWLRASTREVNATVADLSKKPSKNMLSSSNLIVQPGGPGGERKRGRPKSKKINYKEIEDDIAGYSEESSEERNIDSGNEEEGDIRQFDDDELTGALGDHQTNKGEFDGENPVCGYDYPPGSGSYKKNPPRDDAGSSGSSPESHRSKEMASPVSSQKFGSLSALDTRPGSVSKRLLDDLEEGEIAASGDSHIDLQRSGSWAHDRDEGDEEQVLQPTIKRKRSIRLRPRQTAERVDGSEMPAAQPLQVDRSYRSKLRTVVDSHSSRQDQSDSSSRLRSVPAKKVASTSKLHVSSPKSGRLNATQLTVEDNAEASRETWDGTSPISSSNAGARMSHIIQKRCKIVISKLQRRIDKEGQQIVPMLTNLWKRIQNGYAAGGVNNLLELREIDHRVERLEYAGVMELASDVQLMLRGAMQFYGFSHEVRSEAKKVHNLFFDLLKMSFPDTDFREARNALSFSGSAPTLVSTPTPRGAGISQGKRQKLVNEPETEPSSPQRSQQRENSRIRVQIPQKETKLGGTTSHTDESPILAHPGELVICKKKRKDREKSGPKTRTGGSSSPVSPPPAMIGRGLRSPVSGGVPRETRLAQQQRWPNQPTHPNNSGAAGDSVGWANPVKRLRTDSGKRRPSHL

T1: MINUSCULE 2 (MINU2)-GFP (Arabidopsis thaliana) (UniProt F4K128)
T1 sequence: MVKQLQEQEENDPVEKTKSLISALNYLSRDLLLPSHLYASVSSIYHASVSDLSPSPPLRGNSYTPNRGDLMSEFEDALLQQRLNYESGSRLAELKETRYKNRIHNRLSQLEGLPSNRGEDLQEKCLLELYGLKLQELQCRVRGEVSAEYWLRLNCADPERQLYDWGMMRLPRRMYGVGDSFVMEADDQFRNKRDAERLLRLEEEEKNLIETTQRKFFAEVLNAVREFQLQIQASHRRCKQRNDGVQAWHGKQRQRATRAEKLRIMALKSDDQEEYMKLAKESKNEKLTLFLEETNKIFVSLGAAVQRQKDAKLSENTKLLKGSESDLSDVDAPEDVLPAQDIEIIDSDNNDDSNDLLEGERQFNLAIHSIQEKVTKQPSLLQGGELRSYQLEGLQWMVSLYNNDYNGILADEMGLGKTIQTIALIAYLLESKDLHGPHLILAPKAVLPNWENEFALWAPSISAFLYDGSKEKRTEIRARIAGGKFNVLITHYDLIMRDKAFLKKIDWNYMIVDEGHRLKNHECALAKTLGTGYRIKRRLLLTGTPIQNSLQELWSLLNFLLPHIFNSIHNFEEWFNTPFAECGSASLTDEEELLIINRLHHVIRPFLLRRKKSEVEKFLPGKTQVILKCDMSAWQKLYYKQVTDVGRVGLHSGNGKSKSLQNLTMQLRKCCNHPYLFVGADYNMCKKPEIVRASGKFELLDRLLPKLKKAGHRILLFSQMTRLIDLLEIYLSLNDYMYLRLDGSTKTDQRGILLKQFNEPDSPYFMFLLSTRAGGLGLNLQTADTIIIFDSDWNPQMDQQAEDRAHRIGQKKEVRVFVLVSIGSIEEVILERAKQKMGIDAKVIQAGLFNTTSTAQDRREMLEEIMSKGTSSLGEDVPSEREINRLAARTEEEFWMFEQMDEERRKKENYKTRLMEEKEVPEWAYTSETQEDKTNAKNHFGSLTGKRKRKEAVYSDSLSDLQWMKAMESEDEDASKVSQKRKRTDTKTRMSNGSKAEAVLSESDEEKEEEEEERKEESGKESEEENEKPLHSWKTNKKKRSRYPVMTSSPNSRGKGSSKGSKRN


Tests used:
Assay in all cases: affinity purification with mass spectrometry
[1] = target: BRAHMA (BRM)-GFP (Arabidopsis thaliana) (UniProt Q6EVK6)
[2] = target: BRAHMA (BRM)-GFP (Arabidopsis thaliana), Q6EVK6; settings: remark: other sources report otherwise
[3] = target: T1, MINUSCULE 2 (MINU2)-GFP (Arabidopsis thaliana)

| Binder | binding [1] | binding [2] | binding [3] |
| --- | --- | --- | --- |
| SWI3B, Q84JG2 1-469 (protein) MAMKAPDPGGSGEILPSTPSLSETTSGGAAAASKSAQLPSSSSDIDNIHVPSYSSWFSWTDINDCEVRSLPEFFDSRSSSKNPKFYLYLRNSIIKQYRDDHPRKISFTDVRRTLVSDVVSIRRVFDFLDSWGLINYNSSASAKPLKWEEKEAGKSAGDAASEPATTVKETAKRNCNGCKAICSIACFACDKYDLTLCARCYVRSNYRVGINSSEFKRVEISEESKPEWSDKEILLLLEAVMHYGDDWKKVASHVIGRTEKDCVSQFVKLPFGEQFVKESDSEDGLEMFDQIKDSDIPESEGIDKDGSSPNKRIKLTPLADASNPIMAQAAFLSALAGTNVAEAAARAAVRALSDVDYEADKNASRDPNRQDANAASSGETTRNESERAWADAKSLIEKEEHEVEGAIKETVEVEMKKIRDRIVHFEKLDLEMERSRKQLEEVRNLLFVDQLNIFFHTRKARKTEDRIEC |  | no binding |  |
| LEAF AND FLOWER RELATED (LFR) (protein, UniProt Q9LS90 1-460) MQKRELGKSGGNSGGSSGPPAKRGRPFGSTSANSAAAAAAAAAADAMSPSALLGPSLLVHNSFVEQNNRRIVLALQSGLKSEVTWALNTLTLLSFKEKEDIRRDVMPLAKIAGLLDALLLIIDDWRDIALPKDLTRGTRVRTLGTNASVTGFGNEYDALASIQPPGSGIGSSAAEALGKKSTGKHQSSQWWMEEDGLFNLDDEGRSEKQMCAIAASNVIRNFSFMPDNEVVMAQHRHCLETVFQCIHDHMTEDEELVTNSLETIVNLAHLMDLRIFSSLKQSYININEKKAVQAVVGILNSSVKAWNCAAAELLGRLIINPDNEPFISPLIPQIHKRLIDLLSIQAVDAQAAAVGALYNLVEVNMDCRLKLASERWAVDRLLKVIKTPHPVPEVCRKAAMILENLVSEPQNRGLLLAYENAFAELLFQEGKYSDSFARILYELTARSNSRVASARGIWGM | no binding |  |  |
| SWI3A, Q8W475 1-512 (protein) MEATDPSAEIELYTIPAQSSWFLWDDIHEIERREFAEFFTESSITRTPKVYKEYRDFIINKFREDTCRRLTFTSVRKFLVGDVNLLQKVFLFLEKWGLINFSSSLKKNDHLLSVDNAKIEQGTPAGIRVTATPNSLRPITAPPLVEERVETGIKVPPLTSYSDVFSDLKKPDHVLVCAHCGERCDSPFYQHNKGIVNICEKCFKNGNYGENNTADDFKLIGNSAAAVWTEEEILLLLESVLKHGDDWELISQSVSTKSRLDCISKLIELPFGEFLMGSASGRLNPSILTEDENTEQVQTDGQEHEETETREEKEDRVNEDEPPAKRKRVALISEGDSSLMKQVAAMASKVGPSVATAAAKAALAALCDEASCPKEIFDTDDYSNFTVDRANGEKDTDMEEQQEEKDGPQGLPVALRIRASVATALGAAAAQAKILADQEEREMEQLAATVIEQQLKKLQSKLKFLDDLESIMDEEEKVIEGVKETIIQERVSVLQCAFRSGITKRWDHTYVK |  | no binding |  |
| SWI3D, Q8VY05 1-985 (protein) MEEKRRDSAGTLAFAGSSGDSPASEPMPAPRRRGGGLKRKANALGGSNFFSSAPSKRMLTREKAMLASFSPVHNGPLTRARQAPSIMPSAADGVKSEVLNVAVGADGEKPKEEEERNKAIREWEALEAKIEADFEAIRSRDSNVHVVPNHCGWFSWEKIHPLEERSLPSFFNGKLEGRTSEVYREIRNWIMGKFHSNPNIQIELKDLTELEVGDSEAKQEVMEFLDYWGLINFHPFPPTDTGSTASDHDDLGDKESLLNSLYRFQVDEACPPLVHKPRFTAQATPSGLFPDPMAADELLKQEGPAVEYHCNSCSADCSRKRYHCPKQADFDLCTECFNSGKFSSDMSSSDFILMEPAEAPGVGSGKWTDQETLLLLEALEIFKENWNEIAEHVATKTKAQCMLHFLQMPIEDAFLDQIDYKDPISKDTTDLAVSKDDNSVLKDAPEEAENKKRVDEDETMKEVPEPEDGNEEKVSQESSKPGDASEETNEMEAEQKTPKLETAIEERCKDEADENIALKALTEAFEDVGHSSTPEASFSFADLGNPVMGLAAFLVRLAGSDVATASARASIKSLHSNSGMLLATRHCYILEDPPDNKKDPTKSKSCSADAEGNDDNSHKDDQPEEKSKKAEEVSLNSDDREMPDTDTGKETQDSVSEEKQPGSRTENSTTKLDAVQEKRSSKPVTTDNSEKPVDIICPSQDKCSGKELQEPLKDGNKLSSENKDASQSTVSQSAADASQPEASRDVEMKDTLQSEKDPEDVVKTVGEKVQLAKEEGANDVLSTPDKSVSQQPIGSASAPENGTAGGNPNIEGKKEKDICEGTKDKYNIEKLKRAAISAISAAAVKAKNLAKQEEDQIRQLSGSLIEKQLHKLEAKLSIFNEAESLTMRVREQLERSRQRLYHERAQIIAARLGVPPSMSSKASLPTNRIAANFANVAQRPPMGMAFPRPPMPRPPGFPVPGSFVAATTMTGSSDPSPGSDNVSSV |  | no binding |  |

Now from value to binder:

| binding [1] | binding [2] | binding [3] | Binder |
| --- | --- | --- | --- |
| no binding |  |  | MINUSCULE 2 (MINU2) (protein, UniProt F4K128 1-1064) MVKQLQEQEENDPVEKTKSLISALNYLSRDLLLPSHLYASVSSIYHASVSDLSPSPPLRGNSYTPNRGDLMSEFEDALLQQRLNYESGSRLAELKETRYKNRIHNRLSQLEGLPSNRGEDLQEKCLLELYGLKLQELQCRVRGEVSAEYWLRLNCADPERQLYDWGMMRLPRRMYGVGDSFVMEADDQFRNKRDAERLLRLEEEEKNLIETTQRKFFAEVLNAVREFQLQIQASHRRCKQRNDGVQAWHGKQRQRATRAEKLRIMALKSDDQEEYMKLAKESKNEKLTLFLEETNKIFVSLGAAVQRQKDAKLSENTKLLKGSESDLSDVDAPEDVLPAQDIEIIDSDNNDDSNDLLEGERQFNLAIHSIQEKVTKQPSLLQGGELRSYQLEGLQWMVSLYNNDYNGILADEMGLGKTIQTIALIAYLLESKDLHGPHLILAPKAVLPNWENEFALWAPSISAFLYDGSKEKRTEIRARIAGGKFNVLITHYDLIMRDKAFLKKIDWNYMIVDEGHRLKNHECALAKTLGTGYRIKRRLLLTGTPIQNSLQELWSLLNFLLPHIFNSIHNFEEWFNTPFAECGSASLTDEEELLIINRLHHVIRPFLLRRKKSEVEKFLPGKTQVILKCDMSAWQKLYYKQVTDVGRVGLHSGNGKSKSLQNLTMQLRKCCNHPYLFVGADYNMCKKPEIVRASGKFELLDRLLPKLKKAGHRILLFSQMTRLIDLLEIYLSLNDYMYLRLDGSTKTDQRGILLKQFNEPDSPYFMFLLSTRAGGLGLNLQTADTIIIFDSDWNPQMDQQAEDRAHRIGQKKEVRVFVLVSIGSIEEVILERAKQKMGIDAKVIQAGLFNTTSTAQDRREMLEEIMSKGTSSLGEDVPSEREINRLAARTEEEFWMFEQMDEERRKKENYKTRLMEEKEVPEWAYTSETQEDKTNAKNHFGSLTGKRKRKEAVYSDSLSDLQWMKAMESEDEDASKVSQKRKRTDTKTRMSNGSKAEAVLSESDEEKEEEEEERKEESGKESEEENEKPLHSWKTNKKKRSRYPVMTSSPNSRGKGSSKGSKRN |
| binds |  | no binding | SWI3C (protein, UniProt Q9XI07 1-807) MPASEDRRGKWKRKKRGGLSAARKPKQEEEDMEEEDEENNNNNNEEMDDVENADELQQNGGATPDPGLGIGEVVEDSGSRISDFPAVVKRVVIRPHASVMAVVAAERAGLIGETRGQGSLPALENISFGQLQALSTVPADSLDLERSDGSSSAYVISPPPIMDGEGVVKRFGDLVHVLPMHSDWFAPNTVDRLERQVVPQFFSGKSPNHTPESYMEFRNAIVSKYVENPEKTLTISDCQGLVDGVDIEDFARVFRFLDHWGIINYCATAQSHPGPLRDVSDVREDTNGEVNVPSAALTSIDSLIKFDKPNCRHKGGEVYSSLPSLDGDSPDLDIRIREHLCDSHCNHCSRPLPTVYFQSQKKGDILLCCDCFHHGRFVVGHSCLDFVRVDPMKFYGDQDGDNWTDQETLLLLEAVELYNENWVQIADHVGSKSKAQCILHFLRLPVEDGLLDNVEVSGVTNTENPTNGYDHKGTDSNGDLPGYSEQGSDTEIKLPFVKSPNPVMALVAFLASAVGPRVAASCAHESLSVLSEDDRMKSEGMQGKEASLLDGENQQQDGAHKTSSQNGAEAQTPLPQDKVMAAFRAGLSAAATKAKLFADHEEREIQRLSANIVNHQLKRMELKLKQFAEIETLLMKECEQVEKTRQRFSAERARMLSARFGSPGGISPQTNNLQGMSLSTGGNNINSLMHQQHQQQQASATSQPSIIPGFSNNPQVQAQMHFMARQQQQQQQQQQQQQQAFSFGPRLPLNAIQTNAGSTASPNVMFGNNQLNNPAAAGAASINQPSFSHPMVRSSTGSGSGSGLGLN |
